From PubChem BioAssay AID1347426 (Functional Genomics Laboratory (NCATS/FGL), 2020)
Among all 31,000 sequences or so, about 1,400 (4.5%) were called active.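 How the source made its calls: active means median seed-adjusted z-score above 1 or below -1; inactive means the rest.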 This is one part of the list.

assay: Novel Modifiers of Survival Motor Neuron (SMN) Protein: Gene Identification via Genome-wide siRNA Screen; settings: HEK293T SMN2-luciferase reporter, siRNA knockdown, 72 h; actives lie on both sides;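 further: luminescence tracks full-length SMN protein made from the SMN2 reporter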
Summary of the method: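 siRNA screen, 10418 genes ×3 siRNAs; 1 pmol/well, lipid reverse transfection into HEK293T SMN2-luc reporter line. 72 h, 37 °C, 5% CO2; ONE-Glo readout. Data: neg-ctrl normalized, log10, MAD; hit = MAD >1.0 or < -1.0.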

| Sequence | median seed-adjusted z-score |
| --- | --- |
| GCAAAGGAAUUGCUAGUAATT against LIPC | inactive: 0.244 |
| CCUGGAUCUUGAUAAGUUUTT against FMNL3 | inactive: 0.481 |
| CACCUAUCACCGAAAUGGATT against SEMA3G | inactive: 0.00615 |
| CAACAAUGUGGUUCCUAUUTT against RAB11A | inactive: -0.0554 |
| GCUCAACAUCGAUCACCUUTT against TNNT3 | inactive: -0.293 |
| CCAGGAAGCUAUAUGAGAATT against TMPO | inactive: -0.0406 |
| UGUAUUCACUAGACAAGUATT against ARR3 | inactive: -0.0936 |
| CAAGGAGAGGCAUAACGUATT against DNASE1L3 | inactive: 0.0678 |
| CAUCAGGCGCGAUAUCUUUTT against SLC27A4 | inactive: 0.119 |
| CAGUCCCAAUAAUCACGAATT against ARPC1A | inactive: -0.433 |
| AGACCUUCCUGGUGAAUGATT against LRFN1 | inactive: 0.605 |
| GCUCCAGUCUUUUCGCAAATT against DSG4 | inactive: -0.0211 |
| UCUUCUUUUUCGUUCCUUUTT against TLX3 | inactive: 0.0771 |
| AUAUGGAACAGUGAACUUATT against EDEM2 | inactive: 0.36 |
| GCAUUUAGUUCACUGGAAUTT against CA5A | inactive: -0.0668 |
| GAGCGAUAUGAAAUCGUUATT against CLK2 | inactive: -0.0591 |
| CCCUGAUAAUGGUAGCCCATT against SLC4A4 | inactive: 0.43 |
| CAUUGACUAUAGAAUGAGATT against SNRPN | inactive: -0.571 |
| UGGACGCCCUCAGAAAAGATT against HES4 | inactive: 0.705 |
| CCAUUGACGUGAAAUCGAUTT against PDE8B | inactive: 0.217 |
| GGAUUGCCGGUACAGCAAATT against CABIN1 | inactive: -0.446 |
| GGAUCGGUGUAGUUAAAAATT against OLIG3 | inactive: -0.598 |
| GGAACUAAAAGGAAAGAUUTT against ARG1 | inactive: -0.108 |

| Sequence | median seed-adjusted z-score |
| --- | --- |
| CAGAAGACAUUAUCGUGAUTT against TDO2 | inactive: -0.141 |
| CCACGUACCCUUCAUCAAATT against KIF11 | inactive: -0.381 |
| GGAAGAAUCGCGUCCAGAATT against ZDHHC9 | inactive: -0.495 |
| GGUCGUGCGUUACCCAAAATT against ZNF618 | inactive: 0.311 |
| CCACAAUUGUUGUUCACAUTT against PDC | inactive: -0.541 |
| CCUCAUUUGUCCACAUAGATT against IPO5 | inactive: -0.299 |
| GAACGGAGCUUUGACUGUATT against GFI1 | inactive: -0.047 |
| CGACAUUGGUGACCCUCUUTT against DDOST | inactive: -0.315 |
| GCCUCAUCUAGACACGGAATT against SP110 | inactive: -0.788 |
| GCGAAUACAGUAUGCAAAATT against SNRPB2 | inactive: -0.967 |
| CAAUGGGAAUGCACUCAUATT against CTSS | inactive: 0.123 |
| CUCUCACCGAUGUCAAUGATT against CDH12 | inactive: -0.0663 |
| AGAGUUCAGUACUCAUUGATT against ZNF323 | inactive: -0.319 |
| AGAAGAUUAACAUGAUAUCTT against SSX3 | inactive: 0 |
| GGAAUUCUUUGGGCUGAAATT against MMP1 | inactive: 0.205 |
| GUCCUACGAUCCCAAUUAATT against CR1 | inactive: 0.143 |
| CCAAACAACUUCCAACUAATT against PNLIPRP2 | inactive: -0.022 |
| GCAACCUUUGAUUACCUAUTT against FRRS1 | inactive: -0.4 |
| ACCGAAACCUUCUACCUCATT against ARHGAP4 | inactive: 0.784 |
| GUUCCAUCUUGAUCGAGUATT against RASSF9 | inactive: 0.314 |
| AGCUCAUUGCGGAAUCCAATT against GPKOW | inactive: -0.239 |
| GGGUCAUGUAGGUACAACATT against MAPKAP1 | inactive: -0.0499 |
| GACUCCAAAGUAGAAGUAATT against EIF4EBP2 | inactive: 0.517 |

Shown in CSV form: part of the list above.
Sequence,median seed-adjusted z-score
AGAGUUCAGUACUCAUUGATT against ZNF323,inactive: -0.319
GUCCUACGAUCCCAAUUAATT against CR1,inactive: 0.143
GGGUCAUGUAGGUACAACATT against MAPKAP1,inactive: -0.0499
GACUCCAAAGUAGAAGUAATT against EIF4EBP2,inactive: 0.517

(cont.)

| Sequence | median seed-adjusted z-score |
| --- | --- |
| CGAUGUAAGGGAUCAUUAUTT against CCNT2 | inactive: -0.836 |
| CGAGAUAAUGCAAUACCAATT against PRKRIR | inactive: 0 |
| GGCUUCAUUUUAUCCGGGATT against PLOD2 | inactive: -0.281 |
| CGGUGAUAGAUGUGAUUGATT against GALNTL2 | inactive: 0.164 |
| AAGUGACCCUAAGAAGAUATT against ZNF117 | inactive: 0.616 |
| CAUUCGCAAAGGUAUCAUUTT against SLC20A2 | inactive: -0.0546 |
| CUGUUGGAUUGAUUCGAAATT against CTNNB1 | inactive: 0.0802 |
| GGGAUUCACUGUCAGCACATT against EDIL3 | inactive: 0 |
| GCAAAUCUAUUUUCGGAAATT against AGTPBP1 | inactive: -0.201 |
| GCUUUAAACCAGACCAAGATT against VSX2 | inactive: -0.333 |
| CAGCUUCUGUGGUUAAGCATT against ADSL | inactive: 0 |
| GAUCCAUACGAAUUGGAAATT against UPRT | inactive: -0.441 |
| CGGUUGUUAUGACAAUGGATT against FN1 | inactive: -0.312 |
| GCUCAUCCCUUAUAUACCATT against ZNF611 | inactive: -0.0392 |
| GCACUUCGCCUUCCAGGAUTT against DMPK | inactive: -0.0417 |
| GCUGAAAGCGUGAUGGAGATT against DEAF1 | inactive: 0.0416 |
| CCAUCUAUUCAGAGACGUATT against MUTYH | inactive: 0.024 |
| GGUCAGUGGUUAUUGAUUUTT against SCO1 | inactive: -0.251 |
| GGUGUUACUUUGGAUCCUATT against C5 | inactive: 0.153 |
| GAGGCAAAAUAGUUGGAAATT against PPM1E | inactive: -0.00802 |
| CACUCAGACUAAAGAAAGATT against NMUR2 | inactive: 0.529 |
| CAGUGACCAUCGCAACCAGTT against CAPN10 | inactive: 0.364 |
